Source: PubChem BioAssay AID504465 (National Center for Advancing Translational Sciences (NCATS), 2011)
The whole screen tested about 2,100 compounds, of which about 210 (10%) were called active. The shares of active, inactive and inconclusive entries below differ from those in the screen. Calls come from the whole dose curve; as a rule, active = well fitted inhibition curve with a large enough effect; inconclusive = small, poorly fitted or top-dose-only effect, or effect the other way; inactive = no such curve, though single readings can be large or run the other way. Where the call is inconclusive, the potency comes from a doubtful curve fit.
Potency is the fitted concentration of half-maximal effect.

Test: IN Cell qHTS Assay for Inhibitors of the mTORC1 Signaling Pathway in MEF (Tsc2-/-, p53-/-) Cells: Sytravon; note: nearly all actives have a fitted effect of over 60% in size
Conditions: phospho-rpS6 immunofluorescence, 24 h; series mostly up to 38.3 µM
In short: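 Tsc2-/-, p53-/- MEFs (empty-vector) treated with compound 24 h at 37 degree Celsius, then fixed and stained for phospho-rpS6 Ser235/236 (Alexa-488) plus Hoechst. Reported as % positive cells, thresholds set against 7.5 nM rapamycin and DMSO wells.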
With `Cc1cc(C)c(NS(=O)(=O)c2ccc(-c3cnc(C4CC4)o3)cc2)c(C)c1` the Potency was active: 11.7 µM.
In the case of `Cc1cccc(N2CCN(C(=O)c3ccc(CS(=O)c4cccc(Cl)c4)o3)CC2)c1C` (configuration not stated), the Potency is reported as inconclusive: 0.521 µM [falling, full curve, poor fit].
In the case of `CCOC(=O)N1CCN(Cc2nc3cc(NC(=O)c4ccc(OC)cc4)ccc3n2C(C)C)CC1`, the Potency is reported as inconclusive: 20.7 µM [falling, partial curve, poor fit].
With `Cc1cc(C)cc(Oc2coc3cc(OCC(=O)NC4CCCCC4)ccc3c2=O)c1` the Potency was inconclusive: 0.585 µM [falling, full curve, poor fit].
With `Clc1cccc(CNc2cc(-c3ccccc3)nc3nncn23)c1` the Potency was inconclusive: 23.3 µM [falling, partial curve, poor fit].
With `O=C(Nc1ccc(Br)cc1)c1ccc(F)c(S(=O)(=O)N2CCc3ccccc32)c1` the Potency was “inactive”.
In the case of `CCc1ccc(NC(=O)Cn2c(=O)n(-c3ccc(OC)cc3)c(=O)c3ccc(C(=O)NCc4ccc(C)cc4)cc32)cc1`, the Potency is reported as inconclusive: 0.736 µM [falling, full curve, poor fit].
With `CCc1ccc(CNCc2c(C(=O)O)n(Cc3ccc(C)cc3)c3cc(C)ccc23)cc1` the Potency was inconclusive: 23.3 µM [falling, single point].
In the case of `C#CCOc1ccc(C2CC(=O)Nc3c2c(C)nn3-c2nc(C)cc(C)n2)cc1` (configuration not stated), the Potency is reported as inconclusive: 23.3 µM [falling, partial curve, poor fit].
With `C=CCc1c(C)nc2nc(SCC(=O)Nc3ccc(C)c(C)c3)nn2c1C` the Potency was inconclusive: 23.3 µM [falling, single point].
For `COc1ccc(NC(=O)c2c(NC(=O)COc3ccccc3)sc3c2CCC(C)C3)cc1` (configuration not stated), the Potency was inconclusive: 10.4 µM [falling, partial curve, poor fit].
For `CCOc1cccc(C2CC(=O)Nc3cc4c(cc32)OCCO4)c1` (configuration not stated), the Potency was inconclusive: 0.369 µM [falling, partial curve, poor fit].
For `COc1cc2nc(Nc3cccc(C)c3)nc(N)c2cc1OC`, the Potency was inconclusive: 26.1 µM [falling, partial curve, poor fit].
In the case of `CCCN(CCC)CCCNC(=O)C1CCN(c2nc3ccc(CC)cc3s2)CC1`, the Potency is reported as active: 6.56 µM.
In the case of `CCOc1ccc(CNC(=O)c2ccccc2NC(=O)c2nsc3ccccc23)cc1`, the Potency is reported as inconclusive: 23.3 µM [falling, single point].
With `COc1ccc(NC(=O)c2sc3nc4c(cc3c2N)CCCCCC4)cc1` the Potency was inconclusive: 23.3 µM [falling, single point].
With `Cc1ccc(-c2nc3c(C)cccn3c2Nc2ccccc2C)s1` the Potency was inconclusive: 0.414 µM [activator, full curve, poor fit].
With `COC(=O)CSc1nnc2n(-c3ccccc3)c(=O)c3c4c(sc3n12)COC(C(C)C)C4` (configuration not stated) the Potency was inconclusive: 5.21 µM [falling, full curve, poor fit].
With `CCOc1ccccc1N1CC(c2nc3ccccc3n2CCOc2ccc(C(C)(C)C)cc2)CC1=O` (configuration not stated) the Potency was inconclusive: 23.3 µM [falling, single point].
With `Cc1ccc(C)c(N2CCN(C(=O)c3cc4c(=O)n(Cc5cccs5)ccc4nc3C)CC2)c1` the Potency was inconclusive: 4.65 µM [falling, single point].
For `O=C(NC1CCCCC1)/C(=C/c1ccc(Cl)cc1)NC(=O)c1ccccc1`, the Potency was inconclusive: 23.3 µM [falling, single point].
For `COc1cccc(CNC(=O)c2ccc(CS(=O)Cc3ccc(Cl)cc3)o2)c1` (configuration not stated), the Potency was inconclusive: 18.5 µM [falling, single point].
In the case of `Cc1[nH]c2ccccc2c1C1(O)C(=O)N(Cc2ccc(Cl)cc2)c2ccccc21` (configuration not stated), the Potency is reported as inconclusive: 26.1 µM [falling, partial curve, poor fit].
In the case of `CCC1CCCCN1CCCNC(=O)c1ccc2c(c1)c(C)c(C)n2CC` (configuration not stated), the Potency is reported as inconclusive: 23.3 µM [falling, single point].
For `COc1ccc(-c2nn(C)c3sc(C(=O)NCCN(C)C)cc23)cc1OC`, the Potency was inconclusive: 4.14 µM [falling, partial curve, poor fit].
In the case of `COc1ccc(C(=O)CC2(O)C(=O)N(Cc3ccccc3)c3ccc(Br)cc32)cc1` (configuration not stated), the Potency is reported as inconclusive: 14.7 µM [falling, partial curve, poor fit].
For `CCCCc1ccc(C(=O)Nc2ccc3nc(N4CCN(CC)CC4)cc(C)c3c2)cc1`, the Potency was active: 2.61 µM.
With `Cc1ccc(C(C)C)c(OCC(=O)Nc2cc(-c3nc4ccccc4[nH]3)ccc2C)c1` the Potency was inconclusive: 14.7 µM [falling, single point].
For `Cc1ccc(Cn2c(CN3CCC(C(=O)NCCc4ccccc4)CC3)cc3ccccc32)cc1`, the Potency was inconclusive: 23.3 µM [falling, single point].
For `O=C(NCCc1nc2ccccc2n1Cc1ccc(Cl)cc1Cl)c1ccco1`, the Potency was inconclusive: 7.36 µM [falling, partial curve].
With `CCCc1cc(C(=O)Nc2c(C)nn(Cc3c(Cl)cccc3Cl)c2C)no1` the Potency was inconclusive: 16.5 µM [falling, single point].
In the case of `CCN(CC)CCNC(=O)Nc1ccc2c(c1)N(Cc1ccccc1)C(=O)c1ccccc1S2`, the Potency is reported as inconclusive: 23.3 µM [falling, single point].
With `CCc1ccc(S(=O)(=O)N(C(=O)Oc2ccccc2)c2ccc3oc(C)c(C(=O)OC)c3c2)cc1` the Potency was inconclusive: 5.85 µM [falling, partial curve, poor fit].
In the case of `CCCCOc1cccc(C(=O)N(Cc2cccs2)c2ccc(OC)cc2)c1`, the Potency is reported as inconclusive: 14.7 µM [falling, partial curve, poor fit].
In the case of `CCN(CC)c1sc(S(=O)(=O)c2ccccc2)nc1S(=O)(=O)c1ccc(C)cc1`, the Potency is reported as inconclusive: 16.5 µM [falling, partial curve, poor fit].
With `Cn1ncc2nc(SCC(=O)Nc3ccc(Br)cc3F)n(Cc3ccccc3)c(=O)c21` the Potency was inconclusive: 23.3 µM [falling, single point].
With `CCc1ccc(-n2c(=O)c3c4c(sc3n(CC(=O)c3ccc(Cl)cc3)c2=O)CCC4)cc1` the Potency was inconclusive: 2.93 µM [falling, partial curve, poor fit].
